Among the data in paper PMC1874184 (Environmental Health Perspectives, 2005) are IC50 values, retold here.

The target in this experiment is ER-like binding site (specific [3H]-E2 binding). Briefly: Competitive displacement of specific [3H]-E2 binding in gonad cytosolic extracts. The conditions noted are these: read-out: IC50, displacement of specific [3H]-E2 binding; 24 nM [3H]-E2, 18 hr incubation, n = 3.

Take `CC/C(=C(\c1ccccc1)c1ccc(OCCN(C)C)cc1)c1ccccc1` [Tam, tamoxifen]: the IC50 amounted to 1470 nM.
